Measurements from PubChem BioAssay AID488840 (Broad Institute, 2010).
In all, about 1,400 compounds went through this assay and about 45 (3%) were called active.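 Rule for the calls: active = half-maximal dose of signal decrease from fit no higher than ten times the top valid tested dose; inconclusive = fit invalid, or curve flat with 30 to 70% inhibition; inactive = the rest.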 Some of the results follow. Entries with a potency or affinity are not part of this list.

By UniProt entry, the sequences of proteins in these tests, tags left out. Where a name states a change or a piece, a line headed by the entry shows the natural chain unless it says otherwise.
UniProt O75164: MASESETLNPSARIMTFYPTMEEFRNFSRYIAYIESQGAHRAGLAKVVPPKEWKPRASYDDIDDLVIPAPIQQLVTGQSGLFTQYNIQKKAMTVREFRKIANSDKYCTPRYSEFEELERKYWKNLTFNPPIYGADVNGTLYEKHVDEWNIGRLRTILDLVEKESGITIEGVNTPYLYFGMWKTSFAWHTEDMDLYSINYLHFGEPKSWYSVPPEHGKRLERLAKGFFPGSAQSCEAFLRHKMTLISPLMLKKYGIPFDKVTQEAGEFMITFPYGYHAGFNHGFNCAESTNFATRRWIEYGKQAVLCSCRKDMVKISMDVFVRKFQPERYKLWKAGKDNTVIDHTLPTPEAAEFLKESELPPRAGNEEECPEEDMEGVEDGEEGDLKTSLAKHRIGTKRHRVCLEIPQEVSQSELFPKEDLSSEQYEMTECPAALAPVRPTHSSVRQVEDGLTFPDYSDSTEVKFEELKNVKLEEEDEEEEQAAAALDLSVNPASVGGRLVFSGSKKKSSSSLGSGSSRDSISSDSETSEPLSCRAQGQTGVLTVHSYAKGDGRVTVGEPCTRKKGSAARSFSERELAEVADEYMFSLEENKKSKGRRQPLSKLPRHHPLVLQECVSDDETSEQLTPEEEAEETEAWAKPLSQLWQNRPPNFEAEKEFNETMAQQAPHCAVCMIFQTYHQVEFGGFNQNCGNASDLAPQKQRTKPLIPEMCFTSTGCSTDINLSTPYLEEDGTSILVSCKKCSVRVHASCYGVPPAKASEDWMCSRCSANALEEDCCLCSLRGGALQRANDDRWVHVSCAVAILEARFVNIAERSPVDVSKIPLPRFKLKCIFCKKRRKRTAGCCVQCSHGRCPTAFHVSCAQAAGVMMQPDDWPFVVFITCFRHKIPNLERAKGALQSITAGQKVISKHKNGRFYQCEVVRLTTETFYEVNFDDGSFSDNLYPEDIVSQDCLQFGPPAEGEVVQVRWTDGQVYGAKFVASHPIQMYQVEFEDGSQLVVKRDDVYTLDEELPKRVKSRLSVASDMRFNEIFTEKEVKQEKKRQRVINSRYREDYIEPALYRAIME

These molecules were tested against Lysine-specific demethylase 4A (Homo sapiens) (UniProt O75164) (assay: JMJD2A histone demethylase inhibitors, dose response, selectivity assay for GASC-1 inhibitor project, biochemical, DELFIA europium, cherry-picked samples (AID 488840;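 note: europium signal reports the dimethyl H3K9 product detected by antibody so inhibitors lower it; 0% = median of neutral control wells and -100% = median of positive control wells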)). Conditions: GST-JMJD2A(1-420) H3K9me3 demethylation; at 6 µM (top of the series) unless noted.

Activity change, negative = inhibition, inactive:
CC(OC(=O)c1cccnc1SCc1cc(=O)n2ccccc2n1)c1ccccn1 (stereo unspecified) 5.16%
CCOc1cc(/C=N/NC(=O)C(=O)N/N=C/c2ccc(O)c(OCC)c2)ccc1O 2.79%
CC(=O)C[C@H](O)CC(=O)[C@H]1OC(=O)[C@H](C)CCCCc2ccccc21 -0.83%
O=C(NS(=O)(=O)c1ccc2c(c1)OCCO2)c1ccccc1 -5.85%
O=c1cc(N/N=C/c2ccccc2)[nH]c(=O)[nH]1 -2.55%
Clc1ccccc1Cn1nnc2c(NCCN3CCOCC3)ncnc21 -12%
Cc1[nH]c2ccccc2c1-c1ccc(Cl)nn1 -0.212%
O=S(=O)(c1ccc2nc(Nc3ccccc3)ccc2c1)N1CCCCC1 14.2%
CCCCOc1ccc(C(=O)Nc2ccc(N3CCN(C(C)=O)CC3)cc2)cc1 -0.903%
CS(=O)(=O)N(CC(=O)O)c1cc(Cl)cc(Cl)c1 6.16%
CC(C)CNC(=O)c1ccc(NC(=O)c2cccs2)cc1 3.68%
CCc1ccc(-c2nnn(Cc3nn[nH]n3)n2)cc1 1.7%
CCN1C(=O)C(C(=O)Nc2ccc(OC)cc2)C2CC1(C)Oc1ccccc12 (stereo unspecified) 9.69%
Cc1cc(OC(=O)c2c(C)cc(OC(=O)c3c(C)cc(O)cc3O)cc2O)cc(O)c1C(=O)O 1.19%
COc1ccc(-c2nnc(SC(C)C(=O)NCc3ccc4c(c3)OCO4)n2Cc2ccco2)cc1 (stereo unspecified) 5.3%
CCOc1ccc(-c2c(C#N)c(N)nc3c2c(=O)n(C)c(=O)n3C)cc1OC -3.69%
O=c1oc(C2(O)CCCCC2)cc2ccccc12 1.88%
CC(C)CCn1c(NCCN(C)C)nc2c1c(=O)[nH]c(=O)n2C 0.247%
CCOC(=O)N1CCC(c2nc3ccccc3[nH]2)CC1 3.28%
N#CC(=C1CCCC1)c1nc(-c2ccccc2)cs1 -0.243%
CCN1CCC(=NNC(=O)c2ccc(C)c([N+](=O)[O-])c2)CC1 0.261%
CCOc1cc(CN2CCN(CCc3ccccc3)C(CCO)C2)ccc1OC (stereo unspecified) -1.93%
Cc1ccc(C2CC(c3ccccc3)=NN2C(=S)Nc2ccccc2)o1 (stereo unspecified) 3.02%
O=C(CSc1nnnn1-c1ccc(Cl)cc1)N1CCc2ccccc2C1 -8.69%
COc1ccc(CN2CCCCC2C)c(C)c1C (stereo unspecified) 2.39%
COc1ccc(/C=N/Nc2cc(=O)n(C)c(=O)n2C)cc1OC -8.8%
Cc1cccc2sc(NNC(=O)c3cc(=O)c4ccccc4o3)nc12 7.99%
Cc1cccc(Oc2nc(CN3CCOCC3)nc3sc4c(c23)CCCC4)c1 0.732%
Cn1c(=O)[nH]c(=O)c2[nH]c(NCCCN3CCOCC3)nc21 6.62%
CC(=O)N1CCN(c2ccc([N+](=O)[O-])c(-n3nc(C)cc3C)c2)CC1 3.27%
O=C(C[C@H]1C/C=C/CC[C@@H](Cc2ccc(F)cc2)C(=O)O[C@@H](c2ccccc2)CNC1=O)NCCO -0.705%
C[C@H](CO)N1C[C@H](C)[C@@H](CN(C)S(=O)(=O)c2ccc(F)cc2)Oc2ccc(NS(=O)(=O)c3cccs3)cc2C1=O -0.896%
O=C(COC(=O)C1(c2ccc(Cl)cc2)CCCC1)NC1CCS(=O)(=O)C1 (stereo unspecified) 4.75%
CC(=O)NS(=O)(=O)c1ccc(NC(=O)CSc2ccc(Cl)cc2)cc1 -1.91%
NCCN1CCN2C(=O)CN(C(=O)c3ccccc3)CC12 (stereo unspecified) -4.22%
CN(C)c1cccc(C(=O)Nc2cc(C(F)(F)F)ccc2-n2cnc3ccccc32)c1 -3.21%
CC1CN(C)C(C)CC1NCc1ccc2c(c1)OCO2 (stereo unspecified) -0.442%
N=c1n(CCCOc2ccccc2Cl)c2ccccc2n1CC(N)=O 6.15%
CCCCC(=O)NC(NC(=S)N1CCOCC1)C(Cl)(Cl)Cl (stereo unspecified) 3.48%
C[C@H](CO)N1C[C@H](C)[C@@H](CN(C)S(=O)(=O)c2cn(C)cn2)Oc2ccc(NC(=O)C3CC3)cc2C1=O 7%
O=C(Cn1cnc2ccccc2c1=O)Nc1ccc2c(c1)CCC2 -1.76%
Cc1noc(C)c1NC(=O)Nc1ccc2c(c1)C(=O)N([C@H](C)CO)C[C@H](C)[C@@H](CN(C)C(=O)NC1CCCCC1)O2 5.97%
COc1ccc(C(=O)OCCc2sc[n+](CC(=O)c3ccccc3)c2C)cc1 1.87%
Cc1nnsc1C(=O)NNS(=O)(=O)c1ccccc1 0.407%
CCN(C(=O)c1sc(N)c(C#N)c1C)C1CCCCC1 3.95%
c1csc(-c2nc3nc4ccccc4nc3n2Cc2ccc3c(c2)OCO3)c1 7.51%
Cc1ccc(NC(=O)CSc2cccc[n+]2[O-])c([N+](=O)[O-])c1 8.45%
COc1ccc(N(Cc2cc3cccc(C)c3[nH]c2=O)S(C)(=O)=O)cc1 -0.361%
Cc1noc(C)c1NC(=O)N(C)C[C@H]1Oc2ccc(NC(=O)C3CCCCC3)cc2C(=O)N([C@H](C)CO)C[C@@H]1C -3.32%
Cc1ccc(-n2nnc3c(SCC(=O)NCC4CCCO4)ncnc32)cc1 (stereo unspecified) 4.98%
O=C(NCC(c1ccco1)N1CCN(c2ccc(F)cc2)CC1)OCc1ccccc1 (stereo unspecified) -0.0865%
COC(=O)c1cc(C#N)c(OC)nc1C 5.1%
CC(C)(C)C1CCc2[nH]c3ccccc3c(=O)c2C1 (stereo unspecified) -3.92%
O=S(=O)(Nc1ncnc2sc3c(c12)CCC3)c1ccc(Cl)s1 -2.42%
O=C(NCc1ccccn1)c1cn(Cc2ccccc2)nn1 -6.48%
COc1cc(C#N)c(N=C(SCC#N)N2CCOCC2)cc1OC -3.54%
CC(C)(C)OC(=O)CNC(=O)c1[nH]cnc1C(=O)N[C@@H](CCCCN)C(=O)OC(C)(C)C -4.28%
CCCCN(C(=S)NC(=O)c1cc(OC)c(OC)c(OC)c1)c1c(N)n(Cc2ccccc2)c(=O)[nH]c1=O 1.06%
COc1ccc(-c2nn3c(-c4ccco4)nnc3s2)cc1OC 13.3%
Cc1cccc(OCc2nnc(SCC(=O)Nc3cccc(C(=O)N4CCOCC4)c3)o2)c1C -0.255%
CCN(C[C@H]1N[C@@](C)(C(=O)OC)[C@H]2C(=O)N(Cc3ccccc3)C(=O)[C@@H]12)C(=O)Nc1ccc(Cl)cc1 -3.7%
C#CCOCCOCCOCCNc1nc(N2CCN(C(=O)[C@H](CCC(=O)O)n3cc([C@@H](N)[C@H](C)CC)nn3)CC2)nc(N2CCN(C(=O)[C@H](CCCCN)n3cc([C@@H](N)CC(N)=O)nn3)CC2)n1 4.04%
Cc1ccccc1C(=O)Nc1ccccc1C(=O)NC1CC1 -3.94%
O=C(Nc1ccccc1)N(CCc1nc2ccccc2[nH]1)C1CCCC1 -5.44%
O=c1oc2ccccc2c2c1C(c1ccc(Cl)cc1)Nc1ccc3ccccc3c1-2 (stereo unspecified) -0.98%
COc1ccccc1C(c1nnnn1Cc1ccccc1)N1CCN(C2CCCC2)CC1 (stereo unspecified) 1.39%
CCOc1cccc(SCc2noc(C(=O)NC(C)C)c2C(=O)O)c1 2.83%
CC1SC(=NC(=O)C(C)N2C(=O)c3ccccc3C2=O)NC1=O (stereo unspecified) -4.21%
C[C@H](CO)N1C[C@H](C)[C@@H](CN(C)C(=O)Nc2ccc3c(c2)OCO3)Oc2ccc(NC(=O)Cn3cnnn3)cc2C1=O 2.7%
Cc1cc(Cl)c(S(=O)(=O)Nc2ccc3c(c2)OCCO3)cc1OCC(N)=O -3.26%
O=C(Oc1cccc(NC(=O)c2ccco2)c1)c1cccc(S(=O)(=O)N2CCCC2)c1 -3.86%
COc1ccc(NC(=O)CCN2CCCCCC2)cc1 -6.22%
COc1ccc(NC(=O)Nc2ccc3c(c2)C(=O)N([C@H](C)CO)C[C@H](C)[C@@H](CN(C)S(=O)(=O)c2cccs2)O3)cc1 3.58%
COc1cccc(/C=C/C(=O)OCC(=O)NCc2ccc(Cl)cc2)c1 -2.17%
Cc1sc2ncnc(OCC(=O)N3CCN(S(=O)(=O)c4ccc(Cl)cc4)CC3)c2c1C -1.98%
Cc1ccc(S(=O)(=O)N2CCOCC2)cc1C(=O)NNC(=O)c1ccoc1C 1.14%
CC(C)CCSc1cc(NCCO)c([N+](=O)[O-])c2nonc12 -0.0613%
Cc1noc(C)c1C(=O)Nc1ccc2ccccc2c1 1.95%
O=C(CNC(=O)c1ccc(S(=O)(=O)N2CCCC2)cc1)N/N=C/c1ccccc1 0.64%
C=CCNCCOc1cccc(Br)c1 -3.77%
c1ccn2c(SCc3cn4ccsc4n3)nnc2c1 -1.26%
O=C1C=C(NCc2ccc3c(c2)OCO3)CC(c2ccccc2)C1 (stereo unspecified) 8.95%
CCN(C[C@H]1N[C@@](C)(C(=O)OC)[C@H]2C(=O)N(C)C(=O)[C@@H]12)C(=O)Nc1ccc(C)cc1 -3.13%
COC(=O)C1=C(C)N(CCc2cc(OC)c(OC)c(OC)c2)C(=O)N[C@H]1c1cccs1 -1.51%
CN(C)S(=O)(=O)c1ccc(NC(=S)NC(=O)C2CCC2)cc1 7.25%
CN(C)S(=O)(=O)c1ccc(N2CCCC2)c(C(=O)Nc2nc3ccc(F)cc3s2)c1 -0.679%

3 structures already listed, sorted by number of heavy atoms, ascending.
Activity change, negative = inhibition, inactive:
COC(=O)c1cc(C#N)c(OC)nc1C 5.1%
CC(C)CNC(=O)c1ccc(NC(=O)c2cccs2)cc1 3.68%
Cn1c(=O)[nH]c(=O)c2[nH]c(NCCCN3CCOCC3)nc21 6.62%

Looked up one by one from the list above:
Activity change, negative = inhibition, inactive:
COc1ccccc1C(c1nnnn1Cc1ccccc1)N1CCN(C2CCCC2)CC1 (stereo unspecified) 1.39%
COc1ccc(NC(=O)Nc2ccc3c(c2)C(=O)N([C@H](C)CO)C[C@H](C)[C@@H](CN(C)S(=O)(=O)c2cccs2)O3)cc1 3.58%
